Measured values taken from paper PMC12514306.
Results are given in words; binding and its absence hold for the method and conditions named. Binding seen in cells or lysates may run through a third protein. Some results given as binding are weak or reduced against the parent protein; the word gives no strength.

Amino acid sequences for entries named in this document (tags omitted). A change or cut given only in a name is not applied to a line headed by its entry. Chains listed by the source or under a name are the forms on record and can include a tag or linker.
UniProt Q01105: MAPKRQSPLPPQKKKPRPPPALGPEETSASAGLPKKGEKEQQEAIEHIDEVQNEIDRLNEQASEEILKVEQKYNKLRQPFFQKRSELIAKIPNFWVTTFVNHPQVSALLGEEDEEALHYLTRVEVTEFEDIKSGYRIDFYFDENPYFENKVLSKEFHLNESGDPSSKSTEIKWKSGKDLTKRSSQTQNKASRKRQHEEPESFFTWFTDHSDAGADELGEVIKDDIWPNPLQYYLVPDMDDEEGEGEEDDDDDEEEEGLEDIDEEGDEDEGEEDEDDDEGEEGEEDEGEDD
FLAG-SETBP1 p.(Glu858Lys) (Q9Y6X0-1, form named): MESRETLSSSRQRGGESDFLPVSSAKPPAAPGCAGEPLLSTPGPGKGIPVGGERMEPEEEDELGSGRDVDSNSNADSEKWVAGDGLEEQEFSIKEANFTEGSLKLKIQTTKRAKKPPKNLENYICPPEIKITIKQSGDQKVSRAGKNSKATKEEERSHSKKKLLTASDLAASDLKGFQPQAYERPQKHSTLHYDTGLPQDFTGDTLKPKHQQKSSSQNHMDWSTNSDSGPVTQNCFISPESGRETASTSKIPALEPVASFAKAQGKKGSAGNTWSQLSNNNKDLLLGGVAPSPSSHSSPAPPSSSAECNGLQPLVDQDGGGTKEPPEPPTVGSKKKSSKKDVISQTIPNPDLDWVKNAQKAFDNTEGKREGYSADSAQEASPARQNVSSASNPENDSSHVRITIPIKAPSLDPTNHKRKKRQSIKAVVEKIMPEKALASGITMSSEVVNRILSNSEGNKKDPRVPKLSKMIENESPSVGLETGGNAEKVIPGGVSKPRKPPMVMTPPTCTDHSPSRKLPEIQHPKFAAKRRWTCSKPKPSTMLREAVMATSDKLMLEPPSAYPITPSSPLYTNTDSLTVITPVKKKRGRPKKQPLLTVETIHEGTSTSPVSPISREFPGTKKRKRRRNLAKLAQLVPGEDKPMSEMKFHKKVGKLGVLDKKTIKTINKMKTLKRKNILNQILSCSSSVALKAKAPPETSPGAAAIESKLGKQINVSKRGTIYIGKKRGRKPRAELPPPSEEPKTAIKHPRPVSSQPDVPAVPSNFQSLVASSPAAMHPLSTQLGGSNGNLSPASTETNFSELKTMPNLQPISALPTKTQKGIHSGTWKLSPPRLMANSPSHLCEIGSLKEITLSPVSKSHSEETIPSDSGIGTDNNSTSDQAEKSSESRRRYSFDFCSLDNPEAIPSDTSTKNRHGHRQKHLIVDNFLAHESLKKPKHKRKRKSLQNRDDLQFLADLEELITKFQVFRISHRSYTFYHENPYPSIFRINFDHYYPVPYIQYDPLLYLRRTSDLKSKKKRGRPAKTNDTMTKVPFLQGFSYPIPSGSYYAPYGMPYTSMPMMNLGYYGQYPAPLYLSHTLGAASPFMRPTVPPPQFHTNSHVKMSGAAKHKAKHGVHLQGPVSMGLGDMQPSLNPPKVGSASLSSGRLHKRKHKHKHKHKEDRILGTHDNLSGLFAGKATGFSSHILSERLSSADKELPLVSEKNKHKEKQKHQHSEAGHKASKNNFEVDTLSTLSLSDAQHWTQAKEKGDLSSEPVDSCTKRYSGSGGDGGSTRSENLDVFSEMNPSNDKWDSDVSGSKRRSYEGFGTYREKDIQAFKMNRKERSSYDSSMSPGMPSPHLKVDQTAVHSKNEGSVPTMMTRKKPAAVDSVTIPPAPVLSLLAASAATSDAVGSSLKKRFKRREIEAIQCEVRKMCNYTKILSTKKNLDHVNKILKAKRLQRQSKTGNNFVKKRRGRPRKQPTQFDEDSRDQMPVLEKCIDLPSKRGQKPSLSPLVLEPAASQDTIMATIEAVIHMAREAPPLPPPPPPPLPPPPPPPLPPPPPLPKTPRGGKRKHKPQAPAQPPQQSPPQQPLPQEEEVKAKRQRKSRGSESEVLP
FLAG-SETBP1 p.(Leu957Pro) (Q9Y6X0-1, form named): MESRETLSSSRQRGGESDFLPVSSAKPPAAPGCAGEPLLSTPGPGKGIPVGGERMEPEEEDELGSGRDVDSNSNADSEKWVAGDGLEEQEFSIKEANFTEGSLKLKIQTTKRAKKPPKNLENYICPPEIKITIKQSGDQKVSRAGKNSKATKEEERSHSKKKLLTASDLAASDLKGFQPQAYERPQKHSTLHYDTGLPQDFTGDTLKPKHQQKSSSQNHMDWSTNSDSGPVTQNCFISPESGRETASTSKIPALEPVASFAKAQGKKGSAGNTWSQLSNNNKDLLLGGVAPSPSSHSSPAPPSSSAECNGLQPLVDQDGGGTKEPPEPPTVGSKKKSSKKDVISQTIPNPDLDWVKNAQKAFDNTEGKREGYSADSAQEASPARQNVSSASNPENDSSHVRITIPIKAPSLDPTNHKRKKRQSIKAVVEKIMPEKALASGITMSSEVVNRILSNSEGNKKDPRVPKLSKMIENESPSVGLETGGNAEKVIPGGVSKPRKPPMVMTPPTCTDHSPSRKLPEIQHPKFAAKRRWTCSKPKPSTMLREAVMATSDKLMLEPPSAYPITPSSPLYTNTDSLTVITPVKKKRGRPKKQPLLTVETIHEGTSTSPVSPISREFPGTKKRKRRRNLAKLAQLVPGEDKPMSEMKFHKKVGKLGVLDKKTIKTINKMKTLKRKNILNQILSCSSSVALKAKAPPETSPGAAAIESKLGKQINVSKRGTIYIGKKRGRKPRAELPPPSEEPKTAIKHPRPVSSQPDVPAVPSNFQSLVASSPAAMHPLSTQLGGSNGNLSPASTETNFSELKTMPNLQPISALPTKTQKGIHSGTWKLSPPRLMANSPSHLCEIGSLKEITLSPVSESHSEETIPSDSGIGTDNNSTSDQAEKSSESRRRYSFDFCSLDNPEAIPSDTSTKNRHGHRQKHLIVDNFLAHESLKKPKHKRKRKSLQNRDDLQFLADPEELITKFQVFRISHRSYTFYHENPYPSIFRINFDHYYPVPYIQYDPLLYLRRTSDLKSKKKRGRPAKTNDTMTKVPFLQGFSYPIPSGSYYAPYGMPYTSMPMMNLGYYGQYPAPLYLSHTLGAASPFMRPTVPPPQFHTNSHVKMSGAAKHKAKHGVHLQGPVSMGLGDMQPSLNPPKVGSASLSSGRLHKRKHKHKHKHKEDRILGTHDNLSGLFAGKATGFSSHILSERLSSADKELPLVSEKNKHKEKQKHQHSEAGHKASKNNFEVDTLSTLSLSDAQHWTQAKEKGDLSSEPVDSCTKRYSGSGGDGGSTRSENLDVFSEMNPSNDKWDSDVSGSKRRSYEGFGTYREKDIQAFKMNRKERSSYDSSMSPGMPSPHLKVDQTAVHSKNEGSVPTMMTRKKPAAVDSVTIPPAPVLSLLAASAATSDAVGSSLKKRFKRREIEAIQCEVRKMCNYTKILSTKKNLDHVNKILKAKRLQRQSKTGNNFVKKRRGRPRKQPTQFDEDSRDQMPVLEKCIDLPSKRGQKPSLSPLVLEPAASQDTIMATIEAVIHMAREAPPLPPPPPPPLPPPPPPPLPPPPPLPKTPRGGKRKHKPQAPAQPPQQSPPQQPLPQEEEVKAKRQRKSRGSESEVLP
FLAG-SETBP1 p.(Thr962del) (Q9Y6X0-1, form named): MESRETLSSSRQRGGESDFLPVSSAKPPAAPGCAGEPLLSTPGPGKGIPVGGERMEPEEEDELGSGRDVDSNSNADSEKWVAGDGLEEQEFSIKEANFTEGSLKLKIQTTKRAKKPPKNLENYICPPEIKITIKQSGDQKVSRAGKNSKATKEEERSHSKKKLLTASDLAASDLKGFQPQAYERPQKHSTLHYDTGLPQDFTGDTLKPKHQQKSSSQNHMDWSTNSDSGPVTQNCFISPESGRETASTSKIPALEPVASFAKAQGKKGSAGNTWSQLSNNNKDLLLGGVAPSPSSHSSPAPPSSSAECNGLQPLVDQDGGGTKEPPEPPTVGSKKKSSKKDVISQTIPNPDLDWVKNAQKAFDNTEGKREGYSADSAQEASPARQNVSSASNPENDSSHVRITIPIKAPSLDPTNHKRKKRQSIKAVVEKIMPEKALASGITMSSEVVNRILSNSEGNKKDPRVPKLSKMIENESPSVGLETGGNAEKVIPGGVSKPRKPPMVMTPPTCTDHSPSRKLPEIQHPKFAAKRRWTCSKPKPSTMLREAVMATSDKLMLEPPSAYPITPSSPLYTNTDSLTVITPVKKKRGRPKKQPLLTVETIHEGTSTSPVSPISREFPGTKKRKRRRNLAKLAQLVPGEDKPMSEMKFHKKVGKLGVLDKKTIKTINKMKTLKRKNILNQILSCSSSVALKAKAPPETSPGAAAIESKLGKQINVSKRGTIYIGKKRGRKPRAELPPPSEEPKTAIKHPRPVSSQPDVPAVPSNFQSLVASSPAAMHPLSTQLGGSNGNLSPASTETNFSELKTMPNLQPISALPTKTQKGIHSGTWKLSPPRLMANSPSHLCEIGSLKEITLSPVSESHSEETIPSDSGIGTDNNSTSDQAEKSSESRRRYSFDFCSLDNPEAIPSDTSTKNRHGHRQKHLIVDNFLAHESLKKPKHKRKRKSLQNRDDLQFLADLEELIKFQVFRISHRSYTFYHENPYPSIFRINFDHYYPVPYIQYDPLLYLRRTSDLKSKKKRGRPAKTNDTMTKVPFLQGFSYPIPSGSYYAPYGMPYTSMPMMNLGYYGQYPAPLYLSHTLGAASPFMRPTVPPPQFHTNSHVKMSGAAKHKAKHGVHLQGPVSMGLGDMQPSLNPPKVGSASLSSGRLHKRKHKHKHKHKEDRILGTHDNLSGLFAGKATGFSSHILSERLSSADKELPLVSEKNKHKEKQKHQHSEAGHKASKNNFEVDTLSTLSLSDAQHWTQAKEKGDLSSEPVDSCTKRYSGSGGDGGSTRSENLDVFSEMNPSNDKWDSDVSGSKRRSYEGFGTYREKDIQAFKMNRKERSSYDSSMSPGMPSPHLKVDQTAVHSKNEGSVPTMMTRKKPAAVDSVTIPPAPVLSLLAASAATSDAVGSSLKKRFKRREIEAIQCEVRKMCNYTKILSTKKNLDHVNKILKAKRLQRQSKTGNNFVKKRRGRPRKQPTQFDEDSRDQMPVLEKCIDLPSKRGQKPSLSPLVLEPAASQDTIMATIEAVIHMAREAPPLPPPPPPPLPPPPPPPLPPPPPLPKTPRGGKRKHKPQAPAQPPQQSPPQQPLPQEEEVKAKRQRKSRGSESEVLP

target: GFP-SET (UniProt Q01105); assay: co-IP; HEK293T/17 cells co-transfected with GFP-SET and FLAG-SETBP1 (wild type or variants); lysed 48 h after transfection in Pierce IP Lysis Buffer; 400 µg protein immunoprecipitated with FLAG-agarose beads or GFP-Trap overnight at 4 °C; beads washed three times with PBS; immunoblot

binding | Substance
binds | FLAG-SETBP1 p.(Glu858Lys) (from UniProt Q9Y6X0-1 1-1596)
binds | FLAG-SETBP1 p.(Leu957Pro) (from UniProt Q9Y6X0-1 1-1596)
binds | FLAG-SETBP1 p.(Thr962del) (from UniProt Q9Y6X0-1 1-1596)
binds | FLAG-SETBP1 wild type (full-length SETBP1 fused to a C-terminal Myc-DDK tag, pCMV-Entry-SETBP1) (from UniProt Q9Y6X0-1 1-1596)
